Source: publication PMC2822766
Results are given in words; binding and its absence hold for the method and conditions named. Binding seen in cells or lysates may run through a third protein. Sequences can lack the tags named with a protein.

Amino acid sequences for entries named in this document (tags omitted). Residues count along the entry.
UniProt Q01097, residues 27-1482: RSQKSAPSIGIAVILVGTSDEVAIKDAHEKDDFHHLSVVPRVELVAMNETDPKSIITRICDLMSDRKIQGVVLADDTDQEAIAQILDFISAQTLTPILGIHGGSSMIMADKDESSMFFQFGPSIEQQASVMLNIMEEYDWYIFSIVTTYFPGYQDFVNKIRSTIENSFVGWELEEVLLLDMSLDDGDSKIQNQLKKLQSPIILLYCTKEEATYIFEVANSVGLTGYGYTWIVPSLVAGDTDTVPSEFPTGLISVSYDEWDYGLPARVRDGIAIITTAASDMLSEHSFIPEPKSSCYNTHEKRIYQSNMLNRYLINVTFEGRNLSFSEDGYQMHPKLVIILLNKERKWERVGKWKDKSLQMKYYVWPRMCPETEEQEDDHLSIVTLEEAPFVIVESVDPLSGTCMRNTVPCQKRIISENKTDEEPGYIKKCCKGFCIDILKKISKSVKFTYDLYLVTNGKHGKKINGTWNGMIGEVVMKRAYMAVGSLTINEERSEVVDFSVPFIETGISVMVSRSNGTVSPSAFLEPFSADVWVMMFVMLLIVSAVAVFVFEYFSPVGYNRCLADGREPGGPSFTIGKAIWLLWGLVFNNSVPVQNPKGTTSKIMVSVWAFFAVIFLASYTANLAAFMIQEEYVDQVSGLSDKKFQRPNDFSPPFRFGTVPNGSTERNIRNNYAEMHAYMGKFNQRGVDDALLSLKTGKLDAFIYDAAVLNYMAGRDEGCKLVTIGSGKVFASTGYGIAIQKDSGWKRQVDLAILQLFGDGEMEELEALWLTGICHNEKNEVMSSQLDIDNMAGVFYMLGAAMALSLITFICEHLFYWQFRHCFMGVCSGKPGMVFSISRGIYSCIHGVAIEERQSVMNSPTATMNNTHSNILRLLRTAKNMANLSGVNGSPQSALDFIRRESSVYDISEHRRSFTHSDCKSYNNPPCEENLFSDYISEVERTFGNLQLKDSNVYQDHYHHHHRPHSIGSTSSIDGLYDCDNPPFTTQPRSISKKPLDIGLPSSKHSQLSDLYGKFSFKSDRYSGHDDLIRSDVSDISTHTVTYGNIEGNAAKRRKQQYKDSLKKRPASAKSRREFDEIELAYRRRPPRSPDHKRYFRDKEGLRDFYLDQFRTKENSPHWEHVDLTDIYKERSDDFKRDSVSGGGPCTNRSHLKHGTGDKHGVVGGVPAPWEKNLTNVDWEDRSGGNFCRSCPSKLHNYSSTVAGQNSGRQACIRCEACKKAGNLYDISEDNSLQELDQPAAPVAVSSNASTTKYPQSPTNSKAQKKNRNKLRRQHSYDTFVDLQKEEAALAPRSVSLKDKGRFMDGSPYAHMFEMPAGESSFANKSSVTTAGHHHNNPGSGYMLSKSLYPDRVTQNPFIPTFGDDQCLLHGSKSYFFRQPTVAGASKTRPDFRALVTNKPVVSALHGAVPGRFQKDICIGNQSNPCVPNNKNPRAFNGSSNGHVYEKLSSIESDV

Target: T1, DREAM (downstream regulatory element antagonist modulator) (mouse (endogenous in hippocampus)) (UniProt Q9QXT8)
T1 sequence: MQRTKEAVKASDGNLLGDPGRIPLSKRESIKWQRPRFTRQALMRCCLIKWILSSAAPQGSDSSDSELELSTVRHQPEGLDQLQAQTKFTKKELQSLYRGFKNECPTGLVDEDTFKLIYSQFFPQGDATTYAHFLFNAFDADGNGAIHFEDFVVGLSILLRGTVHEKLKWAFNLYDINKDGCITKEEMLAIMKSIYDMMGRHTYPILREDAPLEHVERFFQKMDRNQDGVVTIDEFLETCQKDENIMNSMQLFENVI
Assay: co-IP; hippocampal extracts from wild-type mice; Tris pH 7.5 50 mM, NaCl 150 mM, NP40 1%, Na-deoxycholate […]; 5 ug DREAM antibody (or PSD-95 antibody), protein A magnetic beads; absence of Ca2+ corresponds to 2 mM EDTA

binding	Substance
no binding	NMDA receptor subunit NR2A (from UniProt P35436 23-1464)
no binding	NMDA receptor subunit NR2B (from UniProt Q01097 27-1482)
